Assay results from US20250018040A1 (UNITED STATES OF AMERICA AS REPRESENTED BY THE SECRETARY …, published 2025).
Substitutions are numbered along the chain they refer to. Blank lines part the entries; values can stand above or below the binder they belong to.

Protein sequences, listed by entry. Tags and fused reporters are not part of them. Chains listed by the source or under a name are the forms on record and can include a tag or linker.
UniProt Q13421, other isoform, or with tags, fused parts or gaps limits assumed: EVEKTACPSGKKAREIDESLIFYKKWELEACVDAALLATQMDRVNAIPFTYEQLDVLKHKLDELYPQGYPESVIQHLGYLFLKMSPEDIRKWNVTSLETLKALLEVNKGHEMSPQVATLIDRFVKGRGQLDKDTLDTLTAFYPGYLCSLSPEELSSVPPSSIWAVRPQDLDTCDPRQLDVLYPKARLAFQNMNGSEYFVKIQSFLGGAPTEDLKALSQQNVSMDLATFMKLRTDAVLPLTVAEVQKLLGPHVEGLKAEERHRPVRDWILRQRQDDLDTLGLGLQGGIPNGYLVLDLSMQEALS

What was measured:
[1] = biological target: T1, full length Fc-mesothelin (UniProt Q13421 296-598, limits assumed); assay: mesothelin binding assay as in Example 7: Fc-mesothelin on 293T cells with the CAR vector, flow cytometry (column: Expressed by 293T cells?)
T1 construct: it is written here as in the name; also called Fc-MSLN; full length mesothelin attached to an Fc protein; not shown: Fc protein
Experimental: (§1) 293T cells were independently transduced with the CAR-T vectors. Expression of each Fv by the 293T cells was tested. The CAR-T vectors were transfected into 293T cells. After two days of culture, Fc-mesothelin was bound to the cells. The bound Fc protein was detected by a secondary anti-Fc-antibody conjugated to a fluorescent dye using flow cytometry.
293T cells were independently transduced with the CAR-T vectors. Expression of the Fv by the 293T cells was tested by a mesothelin binding assay, as described in Example 7.

[2] = biological target: T1, full length Fc-mesothelin; assay: flow cytometry: Fc-mesothelin bound to 293T cells transfected with the CAR vector, detected with fluorescent anti-Fc antibody (column: Expressed by 293T cells?)
Experimental: as §1

B1: CAR Construct No. 9, hu15B6 scFv (huVL1-lin-huVH1) (other)
chain: MQAVVTQEPSLTVSPGGTVTLTCASSTGAVTTGNYPNWFQEKPGQAFRGLIAGTNNRAPWVPARFSGSLIGDKAALTLSGVQPEDEAEYFCALWFSSHWVFGGGTKLTVLGGGGSGGGGSGGGGSEVQLVQSGAEVKKPGASVKVSCKASGYSFTGYYMHWVRQAPGQGLEWIGRINPYTGVPSYKHKFQGRVTLTVDKSTSTAYMELSSLRSEDTAVYYCARELGGYWGQGTTVTVSSTSTTTPAPRPPTPAPTIASQPLSLRPEACRPAAGGAVHTRGLDFACDIYIWAPLAGTCGVLLLSLVITKRGRKKLLYIFKQPFMRPVQTTQEEDGCSCRFPEEEEGGCELRVKFSRSADAPAYQQGQNQLYNELNLGRREEYDVLDKRRGRDPEMGGKPRRKNPQEGLYNELQKDKMAEAYSEIGMKGERRRGKGHDGLYQGLSTATKDTYDALHMQALPPR
notes: Chimeric antigen receptor on 293T cells; also called L1H1
binding result [1]: binds

B3: CAR Construct No. 12, hu15B6 scFv (huVL2-lin-huVH2) (other)
chain: B1 chain with E41Q, R57K, P59S, V61T, I70L, F90Y, E126Q, I173M, L195M
notes: Chimeric antigen receptor on 293T cells; also called L2H2
binding result [1]: binds

The remaining lines, values ahead:

binding result [1]: binds
B2: CAR Construct No. 11, hu15B6 scFv (huVL2-lin-huVH1) (other)
chain: B1 chain with E41Q, R57K, P59S, V61T, I70L, F90Y
notes: Chimeric antigen receptor on 293T cells; also called L2H1

binding result [1]: binds
B4: CAR Construct No. 10, hu15B6 scFv (huVL1-lin-huVH2) (other)
chain: B1 chain with E126Q, I173M, L195M
notes: Chimeric antigen receptor on 293T cells; also called L1H2

binding result [2]: binds
B5: CAR Construct No. 1, 15B6 scFv (Vl-lin-Vh) (other)
chain: MQAVVTQESALTTSPGETVTLTCRSSTGAVTTGNYPNWVQEKPDHLFTGLIAGTNNRAPGVPARFSGSLIGDKAALTITGAQTEDEAIYFCALWFSSHWVFGGGTKLTVLGGGGSGGGGSGGGGSEVQLQQSGPVLVKPGASVKISCKASGYSFTGYYMHWVRQSLVKRLEWIGRINPYTGVPSYKHNFKDKASLTVDKSSSTAYMELHSLTSEDSAVYYCARELGGYWGQGTTLTVSSTSTTTPAPRPPTPAPTIASQPLSLRPEACRPAAGGAVHTRGLDFACDIYIWAPLAGTCGVLLLSLVITKRGRKKLLYIFKQPFMRPVQTTQEEDGCSCRFPEEEEGGCELRVKFSRSADAPAYQQGQNQLYNELNLGRREEYDVLDKRRGRDPEMGGKPRRKNPQEGLYNELQKDKMAEAYSEIGMKGERRRGKGHDGLYQGLSTATKDTYDALHMQALPPR
notes: Chimeric antigen receptor (scFv, CD8 hinge, CD8 TM, 4-1BB, CD3 zeta) on 293T cells or T cells; also called 15B6 CAR; 15B6 CAR-T cells
